# The supplement of paper PMC12889115
# The other results are listed elsewhere or left out. Values are raw readings; no control value is given beside them.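 First-pass screen: polymyxin B was added at a level that permeabilizes the Salmonella outer membrane while sparing the inner membrane. DMSO wells, with and without polymyxin B, defined maximum growth. Because plates differed from one another, each plate's data were ranked separately and the compounds with the lowest OD600 were carried forward as hits.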
# Tested on: Salmonella enterica serovar Typhimurium SL1344
# Experiment: bacterial growth OD600 after 18 h with compound and polymyxin B; higher = more bacterial growth (less inhibition)
# Details: 50 µM, Mueller-Hinton broth
SMILES,bacterial growth OD600 (polymyxin B 1 µg/mL),bacterial growth OD600 (polymyxin B 0.75 µg/mL)
COc1cccc(-c2ccc(NC(=O)C3CCCN(C4CCC4)C3)cc2)c1 (stereo unspecified),0.903,–
CCn1ccnc1CNC(=O)CC(c1ccccc1)c1cccc(Cl)c1 (stereo unspecified),–,0.215
COc1cccc(CC(C2CCN(C(=O)CC3CCCCC3)CC2)N(C)C(=O)c2ccsc2)c1 (stereo unspecified),–,0.002
CCOc1cc(CN2CCC3(CC2)c2ccccc2[C@@H](NC(=O)CSC)[C@@H]3OC)ccc1O,–,0.858
Cc1cccc(CN2CCCC3(CCN(C(=O)Cc4cccnc4)C3)C2=O)c1 (stereo unspecified),1.01,–
COCC1CCCN(C(=O)c2cc(Cn3cnc4ccccc43)[nH]n2)C1 (stereo unspecified),0.907,–
CC#CCN1C(=O)NC(CCc2ccccc2)(C2CCN(Cc3cccc(O)c3)CC2)C1=O (stereo unspecified),–,0.773
COc1ccc(C(=O)N2CCCC2)c(OC2CCN(Cc3ccc(O)c(OC)c3)CC2)c1,–,0.855
COc1ccc2c(C)nc(N3CCC(NCc4c(F)cccc4F)CC3)nc2c1,–,0.782
CCc1nc2cc(C(=O)NCCCOc3cccnc3)cc(NC(=O)c3ccccc3OC)c2n1C,–,0.88
CC(C1CCN(C(=O)CCN2Cc3ccccc3OC(c3ccccc3F)C2)CC1)N1CCOCC1 (stereo unspecified),–,0.721
CCn1cc(CN2Cc3cc(C)ccc3OC(c3ccsc3)C2)c(C)n1 (stereo unspecified),–,0.78
COc1ccc(CC2(CCC(=O)NC(C)c3ccc(F)cc3)CCC(=O)N2)c(F)c1 (stereo unspecified),–,0.838
COc1ccccc1CN(C)C(=O)c1csc2nc(-c3ccccc3)cn12,0.62,–
Cc1cc(C)n(Cc2cc(C(=O)N(Cc3nccn3C)C(C)C)n[nH]2)n1,1.07,–
CN(Cc1ccon1)C(=O)c1csc2nc(-c3cccc(F)c3)cn12,–,0.68

SMILES,bacterial growth OD600 (polymyxin B 1 µg/mL),bacterial growth OD600 (polymyxin B 0.75 µg/mL)
COCCN(Cc1ccccn1)C(Cc1ccccc1)C1CCN(Cc2cc(OC)ccc2O)CC1 (stereo unspecified),–,0.682
COc1ccc(CC(=O)NC2CC(=O)N(Cc3ccccc3Cl)C2)cc1 (stereo unspecified),0.708,–
CCCN(CC1CCCO1)C(=O)CC1(c2ccccc2)CC(=O)N(Cc2ccc3c(c2)OCO3)C1=O (stereo unspecified),–,0.005
O=C(c1ccc2[nH]ccc2c1)N1CCOc2ccc(CN3CCN(CCO)CC3)cc2C1,–,0.855
COc1ccccc1-c1ccnc(-n2ncc(C(=O)NCC(C)(C)CN(C)C)c2C)n1,–,0.793
O=C1CCC(CCC(=O)N2CCN(c3ccccc3O)CC2)(Cc2ccc(-c3ccccc3)cc2)N1 (stereo unspecified),–,0.012
O=C(NC1CCOC1)c1cc(COc2cccc(C(F)(F)F)c2)[nH]n1 (stereo unspecified),–,0.713
CCC(=O)N[C@@H]1c2ccccc2C2(CCN(C(=O)c3ccc(C)c(C)c3)CC2)[C@H]1OCc1cccnc1,–,0.791
O=C(c1ccc2ncccc2c1)N1CCCC(Nc2ccc(F)cc2)C1 (stereo unspecified),1.29,–
COc1ccccc1-c1cn2c(C(=O)N(C)Cc3cnn(C)c3)csc2n1,–,0.797
COc1ccc(C(=O)N2CCCC2)c(OC2CCN(CCCc3ccccc3)CC2)c1,1.17,–
Cc1ccc(Oc2ncccc2CNC2CCC2)c(F)c1F,0.86,–
CCn1cnnc1CN(C)c1ccc(-c2nc(C(C)C)no2)cn1,–,0.778
CCCN1CCC(Nc2nc3nonc3nc2NCCCOC)CC1,–,0.792
COc1ccc(CCN2CCC(CN(C)Cc3cnc(SC)nc3)CC2)cc1,1.2,–

# Random excerpt: two records from the list.
SMILES,bacterial growth OD600 (polymyxin B 1 µg/mL),bacterial growth OD600 (polymyxin B 0.75 µg/mL)
CCc1nc2cc(C(=O)NCCCOc3cccnc3)cc(NC(=O)c3ccccc3OC)c2n1C,–,0.88
CN(Cc1ccon1)C(=O)c1csc2nc(-c3cccc(F)c3)cn12,–,0.68
